From patent US20250186503A1, “METHODS AND COMBINATIONS FOR TREATMENT AND T CELL MODULATION” (Juno Therapeutics, Inc., priority 2018, published 2025)

System: anti-BCMA CAR-expressing T cells
Test: RNA-seq and ATAC-seq of anti-BCMA CAR-expressing T cells
Format: cell-based, human
Conditions: 1 μM

Structure (SMILES): Nc1cccc2c1CN(C1CCC(=O)NC1=O)C2=O (stereo not drawn) [lenalidomide, 3-(4-amino-1-oxo-1,3-dihydro-2H-isoindol-2-yl)piperidine-2,6-dione]
- genes upregulated (RNA-seq) (24 hours of stimulation): 214 genes
- change in chromatin accessibility (ATAC-seq) (7 days of stimulation): 2804 peaks
- genes changed (RNA-seq) (7 days of stimulation): 583 genes
